Here are results for 7 molecules from PMC10247384.

By UniProt entry, the sequences of proteins in these tests, tags left out.
UniProt Q9H6L5: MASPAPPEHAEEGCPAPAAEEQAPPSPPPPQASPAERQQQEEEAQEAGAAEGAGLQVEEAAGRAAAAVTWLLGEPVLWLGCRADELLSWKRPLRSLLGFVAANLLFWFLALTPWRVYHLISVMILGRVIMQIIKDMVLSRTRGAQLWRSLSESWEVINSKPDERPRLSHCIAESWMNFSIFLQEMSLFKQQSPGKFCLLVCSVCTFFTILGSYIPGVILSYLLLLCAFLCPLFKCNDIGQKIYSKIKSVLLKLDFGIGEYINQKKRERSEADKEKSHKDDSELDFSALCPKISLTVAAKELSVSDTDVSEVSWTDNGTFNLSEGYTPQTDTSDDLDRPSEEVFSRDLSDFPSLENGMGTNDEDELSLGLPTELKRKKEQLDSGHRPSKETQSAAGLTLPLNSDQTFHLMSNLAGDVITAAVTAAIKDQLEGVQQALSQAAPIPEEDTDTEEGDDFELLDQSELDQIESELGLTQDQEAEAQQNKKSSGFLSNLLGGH
UniProt Q9JKW0: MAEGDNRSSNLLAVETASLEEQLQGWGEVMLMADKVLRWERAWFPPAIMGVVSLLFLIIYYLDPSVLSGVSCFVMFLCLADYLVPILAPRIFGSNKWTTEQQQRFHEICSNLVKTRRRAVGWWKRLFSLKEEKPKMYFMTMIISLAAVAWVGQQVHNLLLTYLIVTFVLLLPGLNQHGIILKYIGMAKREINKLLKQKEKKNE

These are yes or no findings as the source states them, for the method shown. Binding seen in cells or lysates may run through a third protein. Some results given as binding are weak or reduced against the parent protein; the word gives no strength. For some assays here: Tags and fused reporters may be left off the sequences shown.

For assay [1], the target named is FAM134B N-terminally tagged with the V1 or V2 fragment of the Venus protein (UniProt Q9H6L5). The assay can be described thus: split reporter; Venus fluorescence from V1- and V2-tagged proteins in transiently expressing U2OS cells (WT or ARL6IP1 KO).
Assay [2] deals with green fluorescent protein (GFP)-tagged FAM134B (UniProt Q9H6L5). The assay can be described thus: co-IP; HEK293T cells transfected with Myc-ARL6IP1 and tagged FAM134 family members or GFP-tagged FAM134B deletion constructs; immunoblot. Background: Immunoblotting shows a protein as a band on a membrane.
The target of the next assay is T1, tagged FAM134A (UniProt Q8NC44).
T1 sequence: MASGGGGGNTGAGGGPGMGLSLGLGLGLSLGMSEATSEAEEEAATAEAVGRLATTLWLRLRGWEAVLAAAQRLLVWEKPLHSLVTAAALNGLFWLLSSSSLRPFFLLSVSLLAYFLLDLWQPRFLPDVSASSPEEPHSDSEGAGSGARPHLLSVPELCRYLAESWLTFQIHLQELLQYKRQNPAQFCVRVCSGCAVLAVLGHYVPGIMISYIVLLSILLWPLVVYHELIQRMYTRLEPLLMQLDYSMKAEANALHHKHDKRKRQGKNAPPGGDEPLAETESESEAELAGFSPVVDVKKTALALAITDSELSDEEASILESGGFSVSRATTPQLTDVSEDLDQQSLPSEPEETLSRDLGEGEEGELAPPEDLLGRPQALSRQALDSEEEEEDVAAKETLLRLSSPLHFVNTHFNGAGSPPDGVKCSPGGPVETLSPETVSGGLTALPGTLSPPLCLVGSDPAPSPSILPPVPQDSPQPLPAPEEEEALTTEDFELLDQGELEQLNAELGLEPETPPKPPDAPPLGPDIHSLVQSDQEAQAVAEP
Described as above.

In a further assay the target is HA–FAM134B (UniProt Q9H6L5). Kind of assay: co-IP; HEK293T cells transfected with HA-tagged ARL6IP1 or FAM134B constructs; WT and variant proteins pulled down, the endogenous binding partner detected by immunoblot.
The target of assay [3] is haemagglutinin (HA)-tagged ARL6IP1 (UniProt Q15041). Kind of assay: co-IP; doxycycline induced HA-ARL6IP1 in U2OS cells; endogenous FAM134B detected.
The target in assay [4] is endogenous ARL6IP1 (human cells) (human (endogenous in HEK293T and U2OS)) (UniProt Q15041). The assay can be described thus: co-IP; endogenous proteins from MEFs and HEK293T cells; for MEFs cleared lysates with the ARL6IP1 primary antibody at 4 °C overnight, protein A agarose beads 4 h; immunoblot.
Assay [5] has as its target haemagglutinin (HA)-tagged ARL6IP1 (UniProt Q15041). Kind of assay: co-IP; HA-tagged ARL6IP1 precipitated; Western blot for RTN4 and FAM134B; cells not given.
Assay [6] concerns the target green fluorescent protein (GFP)-tagged FAM134B (UniProt Q9H6L5). The assay can be described thus: co-IP; transiently expressed HA–ARL6IP1 or HA–ARL6IP1-7KR with GFP–FAM134B; in Fig. 4h with co-expressed AMFR–Flag or AMFR-RINGmut–Flag; immunoblot.
Assay [7] deals with endogenous ARL6IP1 (MEFs) (mouse (endogenous in MEFs)) (UniProt Q9JKW0). The assay can be described thus: proximity ligation; Duolink in situ kit on PFA-fixed, permeabilised WT MEFs with rabbit anti-FAM134B-Plus and rabbit anti-ARL6IP1-Minus; the respective KO MEFs as specificity control.
Assay [8] has the same target. The assay can be described thus: co-IP; endogenous proteins from MEFs and HEK293T cells; for MEFs cleared lysates with the ARL6IP1 primary antibody at 4 °C overnight, protein A agarose beads 4 h; immunoblot.
Assay [9] has as its target ARL6IP1 N-terminally tagged with the V1 or V2 fragment of the Venus protein (UniProt Q15041). Kind of assay: split reporter; Venus fluorescence from V1- and V2-tagged proteins in transiently expressing U2OS cells (WT or ARL6IP1 KO).

On to “ARL6IP1 N-terminally tagged with the V1 or V2 fragment of the Venus protein (from UniProt Q15041 1-203)”, for which the binding result in assay [1] is “binds”.

Turning to Myc-ARL6IP1 (from UniProt Q15041 1-203), the binding result (in assay [2]; in the assay with tagged FAM134A) was “binds” each time.

In the case of “endogenous ARL6IP1 (human cells) (from UniProt Q15041-1 1-203)”, the binding result with HA–FAM134B was “binds”.

For “endogenous FAM134B (human cells) (from UniProt Q9H6L5 1-497)”, the binding result in assay [3], in assay [4] and in [5] was “binds” in each case.

Consider “haemagglutinin (HA)-tagged ARL6IP1 (from UniProt Q15041 1-203)”, for which the binding result in [6] was “binds”.

B1: endogenous FAM134B (MEFs) (protein, UniProt Q8VE91 1-480)
chain: MASPAPEEHATQGCPATEEQPPRPGVPGEEAGPEGAGPQVEEAAGRVAAALTWLLGEPVLWLGWRADELLSWKRPLRSLLTFLGANLLFWFLALTPWRVYHLISVMILGRVIMQIIKEMVLSRTRGAQLWRSLTESWEVINSKPDERARLSQCIAESWMNFSMFLQEMSLFKQQSPGKFCLLVCSVCTFFTILGSYIPGVILSYLLLLFAFLCPLFKCNDIGQKIYSKVKSILLKLDFGIGEYINQKKRERSEADKEKSHKDDSELDFSALCPKISLTVAAKELSVSDTDVSEVSWTDNGTFNLSEGYTPQTDTSDDLDRPSEEVFSRDLSDFPSLENGTGTNDEDELSLGLPTELKRKKQQLDSAHRPSKERQSAAGLSLPLKSDQALHLMSNLAGDVITAAMTAAIKDQLEGARQALTQVAPTAGEDTDTEEGDDFELLDQAELDQIESELGLTQDQGAEAQQSKKSSGFLSNLLGGH
As to B1, the binding result in assay [7] and in assay [8] was “binds” throughout.

B2: V1-CCPG1 (protein, UniProt Q9ULG6 1-757)
chain: MSENSSDSDSSCGWTVISHEGSDIEMLNSVTPTDSCEPAPECSSLEQEELQALQIEQGESSQNGTVLMEETAYPALEETSSTIEAEEQKIPEDSIYIGTASDDSDIVTLEPPKLEEIGNQEVVIVEEAQSSEDFNMGSSSSSQYTFCQPETVFSSQPSDDESSSDETSNQPSPAFRRRRARKKTVSASESEDRLVAEQETEPSKELSKRQFSSGLNKCVILALVIAISMGFGHFYGTIQIQKRQQLVRKIHEDELNDMKDYLSQCQQEQESFIDYKSLKENLARCWTLTEAEKMSFETQKTNLATENQYLRVSLEKEEKALSSLQEELNKLREQIRILEDKGTSTELVKENQKLKQHLEEEKQKKHSFLSQRETLLTEAKMLKRELERERLVTTALRGELQQLSGSQLHGKSDSPNVYTEKKEIAILRERLTELERKLTFEQQRSDLWERLYVEAKDQNGKQGTDGKKKGGRGSHRAKNKSKETFLGSVKETFDAMKNSTKEFVRHHKEKIKQAKEAVKENLKKFSDSVKSTFRHFKDTTKNIFDEKGNKRFGATKEAAEKPRTVFSDYLHPQYKAPTENHHNRGPTMQNDGRKEKPVHFKEFRKNTNSKKCSPGHDCRENSHSFRKACSGVFDCAQQESMSLFNTVVNPIRMDEFRQIIQRYMLKELDTFCHWNELDQFINKFFLNGVFIHDQKLFTDFVNDVKDYLRNMKEYEVDNDGVFEKLDEYIYRHFFGHTFSPPYGPRSVYIKPCHYSSL
Consider B2, for which the binding entry in assay [9] is recorded as “no binding”.
